Laboratory results: publication PMC10016708
These are yes or no findings as the source states them, for the method shown. In cells and extracts the contact can be indirect. Some entries that bind do so weakly or less than the wild type.

Protein sequences, listed by entry. Tags and fused reporters are not part of them. Residues count along the entry.
UniProt P25445, residues 26-335: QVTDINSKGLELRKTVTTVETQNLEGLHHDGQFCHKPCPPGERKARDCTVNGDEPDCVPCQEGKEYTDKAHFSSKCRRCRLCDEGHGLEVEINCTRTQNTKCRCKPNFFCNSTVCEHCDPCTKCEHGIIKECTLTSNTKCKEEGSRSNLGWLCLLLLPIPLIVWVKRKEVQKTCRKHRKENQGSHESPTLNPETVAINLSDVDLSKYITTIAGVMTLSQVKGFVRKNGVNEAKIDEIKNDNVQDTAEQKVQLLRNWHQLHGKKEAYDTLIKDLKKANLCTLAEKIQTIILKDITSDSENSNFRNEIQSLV
UniProt O00220, residues 24-468: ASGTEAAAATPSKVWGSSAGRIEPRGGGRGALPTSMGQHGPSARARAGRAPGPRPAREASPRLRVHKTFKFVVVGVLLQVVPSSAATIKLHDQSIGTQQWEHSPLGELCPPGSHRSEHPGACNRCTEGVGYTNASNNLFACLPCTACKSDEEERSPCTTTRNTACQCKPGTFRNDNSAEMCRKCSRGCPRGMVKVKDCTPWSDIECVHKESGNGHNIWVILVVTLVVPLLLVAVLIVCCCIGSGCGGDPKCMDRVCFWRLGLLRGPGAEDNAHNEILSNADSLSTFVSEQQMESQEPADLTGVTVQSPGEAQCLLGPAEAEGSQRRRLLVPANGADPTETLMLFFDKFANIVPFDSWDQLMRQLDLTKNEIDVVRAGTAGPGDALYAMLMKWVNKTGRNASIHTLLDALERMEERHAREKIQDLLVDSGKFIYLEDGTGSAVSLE

How the values were obtained:
[1] = molecular target: T1, membrane-associated RING-CH-type finger ubiquitin ligase MARCHF8 (human (endogenous in SCC152)) (UniProt Q5T0T0); experiment: co-IP; endogenous proteins; 1 mg whole-cell lysate (RIPA buffer) of SCC152 cells treated with MG132, incubated overnight at 4°C with protein A/G magnetic beads carrying 5 μg anti-MARCHF8 or anti-FAS antibody; western blot
T1 sequence: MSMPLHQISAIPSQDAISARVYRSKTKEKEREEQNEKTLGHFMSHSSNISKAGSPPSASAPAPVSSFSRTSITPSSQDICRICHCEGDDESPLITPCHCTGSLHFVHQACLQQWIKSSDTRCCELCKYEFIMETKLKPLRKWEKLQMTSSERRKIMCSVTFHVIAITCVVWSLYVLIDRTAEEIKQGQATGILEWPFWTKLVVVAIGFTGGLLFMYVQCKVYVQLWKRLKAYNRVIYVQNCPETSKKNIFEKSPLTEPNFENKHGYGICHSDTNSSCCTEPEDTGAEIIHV

[2] = molecular target: FAS (human (endogenous in SCC152)) (UniProt P25445); experiment: as above

Molecule: FAS (from UniProt P25445 26-335) (receptor)
- binding [1]: binds

Molecule: TRAIL-R1 (from UniProt O00220 24-468) (receptor)
- binding [1]: binds

B1: membrane-associated RING-CH-type finger ubiquitin ligase MARCHF8 (enzyme, UniProt Q5T0T0 1-291)
chain: T1 sequence
- binding [2]: binds
